Among the data in article PMC8506026 are binding values, retold here.

Protein sequences, listed by entry. Tags and fused reporters are not part of them.
UniProt Q03113: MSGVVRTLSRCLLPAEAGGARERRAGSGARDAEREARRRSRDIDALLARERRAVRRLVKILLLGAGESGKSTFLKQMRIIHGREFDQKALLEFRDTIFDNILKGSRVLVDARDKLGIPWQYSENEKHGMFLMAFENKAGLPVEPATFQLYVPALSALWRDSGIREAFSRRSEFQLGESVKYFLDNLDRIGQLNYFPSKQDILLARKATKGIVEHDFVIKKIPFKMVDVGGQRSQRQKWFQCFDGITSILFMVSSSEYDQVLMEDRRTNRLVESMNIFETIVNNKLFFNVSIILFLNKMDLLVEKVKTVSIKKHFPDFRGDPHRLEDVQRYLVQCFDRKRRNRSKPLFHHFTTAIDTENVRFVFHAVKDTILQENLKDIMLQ
UniProt Q9NZN5: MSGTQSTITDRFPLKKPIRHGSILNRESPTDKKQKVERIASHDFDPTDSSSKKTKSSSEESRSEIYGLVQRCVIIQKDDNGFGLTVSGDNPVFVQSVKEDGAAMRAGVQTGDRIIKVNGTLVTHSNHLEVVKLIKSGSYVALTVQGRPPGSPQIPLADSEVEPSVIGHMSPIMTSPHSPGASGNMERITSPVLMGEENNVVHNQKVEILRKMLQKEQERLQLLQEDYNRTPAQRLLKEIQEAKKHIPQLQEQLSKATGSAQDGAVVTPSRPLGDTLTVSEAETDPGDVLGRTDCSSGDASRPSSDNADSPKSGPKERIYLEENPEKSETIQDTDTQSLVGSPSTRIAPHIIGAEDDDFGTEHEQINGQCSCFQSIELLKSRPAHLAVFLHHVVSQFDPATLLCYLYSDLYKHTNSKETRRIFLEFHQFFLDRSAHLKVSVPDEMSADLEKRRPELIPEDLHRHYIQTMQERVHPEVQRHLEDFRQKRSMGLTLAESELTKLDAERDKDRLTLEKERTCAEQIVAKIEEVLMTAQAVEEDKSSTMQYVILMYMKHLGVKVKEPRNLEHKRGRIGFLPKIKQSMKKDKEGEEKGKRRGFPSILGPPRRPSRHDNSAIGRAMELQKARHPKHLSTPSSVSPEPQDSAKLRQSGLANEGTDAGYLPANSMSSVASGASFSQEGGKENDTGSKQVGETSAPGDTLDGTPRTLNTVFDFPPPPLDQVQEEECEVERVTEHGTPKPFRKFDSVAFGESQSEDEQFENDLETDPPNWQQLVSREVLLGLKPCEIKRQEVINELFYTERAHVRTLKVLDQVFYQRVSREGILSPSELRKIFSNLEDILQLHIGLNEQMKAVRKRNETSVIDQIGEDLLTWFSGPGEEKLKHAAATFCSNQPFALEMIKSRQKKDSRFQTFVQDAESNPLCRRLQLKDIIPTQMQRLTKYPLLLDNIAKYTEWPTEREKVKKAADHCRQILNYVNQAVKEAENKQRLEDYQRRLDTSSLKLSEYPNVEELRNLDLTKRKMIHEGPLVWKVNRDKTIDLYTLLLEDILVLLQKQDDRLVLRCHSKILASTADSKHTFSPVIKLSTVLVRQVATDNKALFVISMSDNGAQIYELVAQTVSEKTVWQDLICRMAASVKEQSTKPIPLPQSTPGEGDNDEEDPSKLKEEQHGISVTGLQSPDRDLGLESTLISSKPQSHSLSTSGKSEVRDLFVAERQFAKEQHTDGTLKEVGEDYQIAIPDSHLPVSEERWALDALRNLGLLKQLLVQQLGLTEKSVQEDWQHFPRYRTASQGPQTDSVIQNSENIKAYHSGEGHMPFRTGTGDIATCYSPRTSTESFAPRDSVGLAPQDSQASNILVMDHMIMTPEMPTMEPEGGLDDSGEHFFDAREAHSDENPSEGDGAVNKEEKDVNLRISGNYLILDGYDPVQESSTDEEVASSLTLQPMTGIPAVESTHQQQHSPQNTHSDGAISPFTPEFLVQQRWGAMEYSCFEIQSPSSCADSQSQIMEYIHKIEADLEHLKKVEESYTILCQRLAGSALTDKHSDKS

In the assay the target is Gα12 (human (endogenous in TPC1 and FTC-133)) (UniProt Q03113). Briefly: co-IP; endogenous proteins in whole-cell lysates (M-PER, protease and phosphatase inhibitors) of TPC1 and FTC-133 thyroid cancer cells, pre-cleared with Protein A/G Dynabeads, 2 mg/ml lysate; control IgG; immunoblot. (In general: Immunoblotting shows a protein as a band on a membrane.)

These are yes or no findings as the source states them, for the method shown. In cells and extracts the contact can be indirect. Some entries that bind do so weakly or less than the wild type.

As for “leukemia associated RhoA guanine exchange factor (LARG) (from UniProt Q9NZN5 1-1544)”, the binding entry is recorded as “binds”.
